Assay results as given in the supplement of paper PMC10735217.
Some of the results follow. Single values are uncertain here, since repeats match poorly.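 The human kidney-derived cells carry a stably integrated construct of eight TEAD-binding elements driving luciferase, read by luminescence in a drug-repurposing library screen. A compound counts as a hit when its signal is more than five robust Z scores above the plate mean.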

Test system: HEK293A TEAD-LUC reporter
Assay: TEAD-luciferase reporter activity (YAP activation), robust Z score vs plate; higher = stronger YAP/TEAD activation
Details: 24 h

## OCc1c[nH]c2ccccc12 [Indole-3-carbinol]
Compound concentration: 200 nM
  TEAD-luciferase reporter activity: inactive: -1.18
Compound concentration: 2 uM
  TEAD-luciferase reporter activity: inactive: -1.71
Compound concentration: 10 uM
  TEAD-luciferase reporter activity: inactive: 2.58

## COc1ccc(CC2CNC(=O)N2)cc1OC1CCCC1 (stereo not drawn)
Compound concentration: 200 nM
  TEAD-luciferase reporter activity: inactive: 1.3
Compound concentration: 2 uM
  TEAD-luciferase reporter activity: inactive: -0.46
Compound concentration: 10 uM
  TEAD-luciferase reporter activity: inactive: -0.0394

## COc1ccc(Nc2ccn(-c3ccccc3)n2)cc1 [N-(4-Methoxyphenyl)-1-phenyl-1H-pyrazol-3-amine]
Compound concentration: 200 nM
  TEAD-luciferase reporter activity: active: 10.7
Compound concentration: 10 uM
  TEAD-luciferase reporter activity: active: 6.95

## COc1ccc(Nc2ccn(-c3ccccc3)n2)cc1
Compound concentration: 2 uM
  TEAD-luciferase reporter activity: inactive: 0.217

## Cc1ccccc1-c1nc(N2CCOCC2)ncc1N(C)C(=O)C(C)(C)c1cc(C(F)(F)F)cc(C(F)(F)F)c1
Compound concentration: 200 nM
  TEAD-luciferase reporter activity: inactive: 0.773
Compound concentration: 2 uM
  TEAD-luciferase reporter activity: inactive: -0.468
Compound concentration: 10 uM
  TEAD-luciferase reporter activity: inactive: -0.0463

## CN(C)CC/C=C1/c2ccccc2CC(O)c2ccccc21 (stereo not drawn)
Compound concentration: 200 nM
  TEAD-luciferase reporter activity: inactive: -1.03
Compound concentration: 2 uM
  TEAD-luciferase reporter activity: inactive: -1.87
Compound concentration: 10 uM
  TEAD-luciferase reporter activity: inactive: -1.38

## COc1cccc(C(=O)N2CCC(N3CCCCCC3=O)CC2)c1
Compound concentration: 200 nM
  TEAD-luciferase reporter activity: inactive: -1.03
Compound concentration: 10 uM
  TEAD-luciferase reporter activity: inactive: -1.79

## CC(C(=O)OCCCCO[N+](=O)[O-])c1ccc(-c2ccccc2)c(F)c1 (stereo not drawn)
Compound concentration: 200 nM
  TEAD-luciferase reporter activity: inactive: -0.898
Compound concentration: 2 uM
  TEAD-luciferase reporter activity: inactive: -1.5
Compound concentration: 10 uM
  TEAD-luciferase reporter activity: inactive: -0.621

## COC[C@H](C)Oc1cc(Oc2cnc(C(=O)N3CCC3)cn2)cc(C(=O)Nc2cnc(C)nc2)c1
Compound concentration: 200 nM
  TEAD-luciferase reporter activity: inactive: -1.09
Compound concentration: 2 uM
  TEAD-luciferase reporter activity: inactive: -0.689
Compound concentration: 10 uM
  TEAD-luciferase reporter activity: inactive: 0.884

## OCCN1CCN(CCCC2c3ccc(F)cc3Sc3ccc(C(F)(F)F)cc32)CC1 (stereo not drawn)
Compound concentration: 200 nM
  TEAD-luciferase reporter activity: inactive: -0.428
Compound concentration: 2 uM
  TEAD-luciferase reporter activity: inactive: -1.82
Compound concentration: 10 uM
  TEAD-luciferase reporter activity: inactive: 1.28

## CC(O)C(N)C(=O)O (stereo not drawn) [threonine, Indevus]
Compound concentration: 200 nM
  TEAD-luciferase reporter activity: inactive: -0.954
Compound concentration: 10 uM
  TEAD-luciferase reporter activity: inactive: 3.71

## CCN(C)C(c1ccccc1)c1ccccc1
Compound concentration: 200 nM
  TEAD-luciferase reporter activity: inactive: -0.654
Compound concentration: 2 uM
  TEAD-luciferase reporter activity: inactive: -1.7
Compound concentration: 10 uM
  TEAD-luciferase reporter activity: inactive: 0.182

## CCC[C@]1(CCc2ccccc2)CC(=O)C(C(CC)c2cccc(NS(=O)(=O)c3ccc(C(F)(F)F)cn3)c2)C(=O)O1 (stereo partly drawn) [tipranavir]
Compound concentration: 200 nM
  TEAD-luciferase reporter activity: inactive: -0.514
Compound concentration: 2 uM
  TEAD-luciferase reporter activity: inactive: -0.868
Compound concentration: 10 uM
  TEAD-luciferase reporter activity: inactive: 0.888

## Cc1cc(=O)oc2cc(O[C@@H]3SC[C@@H](O)[C@H](O)[C@H]3O)ccc12 [Odiparcil]
Compound concentration: 200 nM
  TEAD-luciferase reporter activity: inactive: 0.791
Compound concentration: 2 uM
  TEAD-luciferase reporter activity: inactive: -1.86
Compound concentration: 10 uM
  TEAD-luciferase reporter activity: inactive: 0.189

## Cc1ccc(NC(=O)c2cccc(-c3nn[nH]n3)c2)cc1
Compound concentration: 200 nM
  TEAD-luciferase reporter activity: inactive: -1.03
Compound concentration: 2 uM
  TEAD-luciferase reporter activity: inactive: -2.63
Compound concentration: 10 uM
  TEAD-luciferase reporter activity: inactive: -1.54

## CCN1C(=O)c2cc(NC(=O)c3ccc(C(F)(F)F)cc3)ccc2Oc2ccccc21
Compound concentration: 200 nM
  TEAD-luciferase reporter activity: inactive: 1.55
Compound concentration: 2 uM
  TEAD-luciferase reporter activity: inactive: 1.94
Compound concentration: 10 uM
  TEAD-luciferase reporter activity: inactive: 2.3

## CN(C)CCCOc1ccc(-c2ccc3ncc4c(c3c2)n(C2CCOCC2)c(=O)n4C)cn1
Compound concentration: 200 nM
  TEAD-luciferase reporter activity: inactive: 1.68
Compound concentration: 2 uM
  TEAD-luciferase reporter activity: inactive: -1.34
Compound concentration: 10 uM
  TEAD-luciferase reporter activity: inactive: -1.61

## Cn1c(=O)c2c(ncn2CC(O)CN2CCN(CCCSc3ccccc3)CC2)n(C)c1=O (stereo not drawn)
Compound concentration: 200 nM
  TEAD-luciferase reporter activity: inactive: 0.912
Compound concentration: 2 uM
  TEAD-luciferase reporter activity: inactive: -1.67
Compound concentration: 10 uM
  TEAD-luciferase reporter activity: inactive: 2.16

## Cn1cc(C(=O)[C@@H]2CCc3nc[nH]c3C2)c2ccccc21 [ramosetron (ODT)]
Compound concentration: 200 nM
  TEAD-luciferase reporter activity: inactive: -1.03
Compound concentration: 2 uM
  TEAD-luciferase reporter activity: inactive: -2.32
Compound concentration: 10 uM
  TEAD-luciferase reporter activity: inactive: -1.42

## Cc1c(-c2cccnc2)n(CCCCCCCC(=O)O)c2ccccc12
Compound concentration: 200 nM
  TEAD-luciferase reporter activity: inactive: -0.552
Compound concentration: 2 uM
  TEAD-luciferase reporter activity: inactive: 1.15
Compound concentration: 10 uM
  TEAD-luciferase reporter activity: inactive: -0.177

## CC(=O)Nc1c(I)cc(I)c(C(=O)O)c1I
Compound concentration: 200 nM
  TEAD-luciferase reporter activity: inactive: -1.11
Compound concentration: 2 uM
  TEAD-luciferase reporter activity: inactive: -0.893
Compound concentration: 10 uM
  TEAD-luciferase reporter activity: inactive: -0.983

## CC(=O)N[C@H]1CSSC[C@@H](C(N)=O)NC(=O)[C@H](C(C)C)NC(=O)[C@H](C)NC(=O)[C@H](Cc2cnc[nH]2)NC1=O [Exherin (trifluoroacetate)]
Compound concentration: 200 nM
  TEAD-luciferase reporter activity: inactive: 1.5
Compound concentration: 2 uM
  TEAD-luciferase reporter activity: inactive: -0.866
Compound concentration: 10 uM
  TEAD-luciferase reporter activity: inactive: 3.47

## Cl/C(=C\n1cncn1)c1ccc(Cl)cc1Cl [Loreclezole]
Compound concentration: 200 nM
  TEAD-luciferase reporter activity: inactive: -0.376
Compound concentration: 2 uM
  TEAD-luciferase reporter activity: inactive: -1.56
Compound concentration: 10 uM
  TEAD-luciferase reporter activity: inactive: 0.7

## CC(=O)NCC(=O)N1Cc2ccccc2CC2(CCCCN2CC2CCCC2)C1 (stereo not drawn)
Compound concentration: 200 nM
  TEAD-luciferase reporter activity: inactive: -1.14
Compound concentration: 10 uM
  TEAD-luciferase reporter activity: inactive: -0.349

## CC(C)NCC(O)c1cc(O)cc(O)c1 (stereo not drawn) [Metaproterenol]
Compound concentration: 200 nM
  TEAD-luciferase reporter activity: inactive: 0.148
Compound concentration: 10 uM
  TEAD-luciferase reporter activity: inactive: -0.88

## CC(C)NCC(O)c1cc(O)cc(O)c1 (stereo not drawn) [Orciprenaline sulphate]
Compound concentration: 2 uM
  TEAD-luciferase reporter activity: inactive: -1.39

## Cc1cc(OCP2(=O)OCC[C@@H](c3cccc(Cl)c3)O2)cc(C)c1Cc1ccc(O)c(C(C)C)c1 (stereo partly drawn)
Compound concentration: 200 nM
  TEAD-luciferase reporter activity: inactive: -1.52
Compound concentration: 2 uM
  TEAD-luciferase reporter activity: inactive: -0.748
Compound concentration: 10 uM
  TEAD-luciferase reporter activity: inactive: -1.21

## CC(C)(C)c1ccc(O)c(C(=O)c2cccs2)c1
Compound concentration: 200 nM
  TEAD-luciferase reporter activity: inactive: 1.51
Compound concentration: 2 uM
  TEAD-luciferase reporter activity: inactive: 1.09
Compound concentration: 10 uM
  TEAD-luciferase reporter activity: inactive: -0.979

## CCCCC[C@H](O)/C=C/[C@@H]1[C@H]2C/C(=C/CCCC(=O)OC)C[C@H]2C[C@H]1O
Compound concentration: 200 nM
  TEAD-luciferase reporter activity: inactive: -0.539
Compound concentration: 2 uM
  TEAD-luciferase reporter activity: inactive: -0.224
Compound concentration: 10 uM
  TEAD-luciferase reporter activity: inactive: -0.504
